These are yes or no findings as the source states them, for the method shown. Binding seen in cells or lysates may run through a third protein. Some binding calls cover weakened binding; strength is not graded here. Tags and fused reporters may be left off the sequences shown.
Molecular target: T1, Flag-tagged human IL-17 receptor A (Flag-IL-17RA) (human) (UniProt Q96F46)
T1 sequence: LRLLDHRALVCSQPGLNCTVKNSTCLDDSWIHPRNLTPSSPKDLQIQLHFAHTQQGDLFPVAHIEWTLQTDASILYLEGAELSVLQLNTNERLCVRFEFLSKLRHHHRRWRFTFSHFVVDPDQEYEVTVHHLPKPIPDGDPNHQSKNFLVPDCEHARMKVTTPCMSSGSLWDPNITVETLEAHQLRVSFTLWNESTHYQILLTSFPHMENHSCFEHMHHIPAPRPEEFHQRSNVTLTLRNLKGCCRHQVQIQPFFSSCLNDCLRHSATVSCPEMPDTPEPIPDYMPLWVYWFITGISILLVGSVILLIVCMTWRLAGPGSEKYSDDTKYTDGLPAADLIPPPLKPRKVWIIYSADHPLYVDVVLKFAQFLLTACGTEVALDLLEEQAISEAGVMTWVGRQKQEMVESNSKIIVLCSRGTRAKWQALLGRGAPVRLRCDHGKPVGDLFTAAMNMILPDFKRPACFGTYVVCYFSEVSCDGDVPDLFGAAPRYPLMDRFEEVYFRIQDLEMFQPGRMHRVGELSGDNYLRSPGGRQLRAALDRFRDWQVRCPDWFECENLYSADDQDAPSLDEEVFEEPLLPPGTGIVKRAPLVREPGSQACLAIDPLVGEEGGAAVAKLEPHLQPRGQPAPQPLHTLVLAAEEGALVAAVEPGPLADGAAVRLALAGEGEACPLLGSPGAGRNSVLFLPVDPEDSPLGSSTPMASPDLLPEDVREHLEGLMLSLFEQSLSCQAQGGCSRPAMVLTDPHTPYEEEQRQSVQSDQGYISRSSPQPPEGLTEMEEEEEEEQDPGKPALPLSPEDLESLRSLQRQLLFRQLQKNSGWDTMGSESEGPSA
Experiment: co-IP; 293 cells transfected or co-transfected, RIPA lysates; ANTI-FLAG M2 Affinity Gel or primary antibody plus protein A sepharose overnight at 4°C, washed 3 times with PBS; IB

Amino acid sequences for entries named in this document (tags omitted).
UniProt P49841: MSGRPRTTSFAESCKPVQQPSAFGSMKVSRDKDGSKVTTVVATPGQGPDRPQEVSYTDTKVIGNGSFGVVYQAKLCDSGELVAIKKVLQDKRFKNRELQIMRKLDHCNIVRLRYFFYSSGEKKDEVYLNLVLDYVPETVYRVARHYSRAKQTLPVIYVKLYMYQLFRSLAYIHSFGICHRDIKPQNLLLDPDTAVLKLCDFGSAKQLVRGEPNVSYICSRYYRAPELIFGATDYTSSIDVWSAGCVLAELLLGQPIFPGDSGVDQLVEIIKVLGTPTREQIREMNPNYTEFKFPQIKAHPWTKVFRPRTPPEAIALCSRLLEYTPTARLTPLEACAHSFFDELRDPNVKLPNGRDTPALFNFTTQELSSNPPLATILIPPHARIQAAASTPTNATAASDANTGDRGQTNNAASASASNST

With “HA-tagged GSK3β (HA-GSK3β), wild type (from UniProt P49841 1-420) (enzyme)” the binding was “binds”.

For “GSK3β found in the anti-Flag precipitate of 293 cells transfected with Flag-IL-17RA (from UniProt P49841 1-420) (enzyme)”, the binding was “binds”.

— paper PMC4924668
